Results as given in US20260028422A1 (CONCEPT TO MEDICINE BIOTECH, published 2026).
Residue numbers refer to the chain shown, from its start. Results are given in words; binding and its absence hold for the method and conditions named. Some binding calls cover weakened binding; strength is not graded here. For some of these results: Where a sequence is shown, tags or fusion partners need not be part of it.

T1: human MerTK-his protein (human, UniProt Q12866 21-505)
T1 construct: extracellular domain; also called hMerTK-His; human MerTK protein
T1 sequence (looked up): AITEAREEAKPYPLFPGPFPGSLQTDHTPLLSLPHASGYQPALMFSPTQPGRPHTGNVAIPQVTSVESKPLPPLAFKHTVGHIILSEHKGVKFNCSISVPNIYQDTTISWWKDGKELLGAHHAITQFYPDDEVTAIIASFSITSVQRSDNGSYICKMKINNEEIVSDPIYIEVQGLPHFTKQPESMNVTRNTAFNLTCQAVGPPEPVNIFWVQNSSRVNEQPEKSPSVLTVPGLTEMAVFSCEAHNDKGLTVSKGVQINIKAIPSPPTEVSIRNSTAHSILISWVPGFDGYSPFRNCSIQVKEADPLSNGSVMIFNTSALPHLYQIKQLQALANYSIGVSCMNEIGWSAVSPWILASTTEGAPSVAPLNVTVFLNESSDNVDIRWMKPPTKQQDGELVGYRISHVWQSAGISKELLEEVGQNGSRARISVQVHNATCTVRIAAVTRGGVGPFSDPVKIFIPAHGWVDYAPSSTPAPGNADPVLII

B1: 10F7D9 chimeric monoclonal antibody (antibody, V domains shown)
VH: QIQLVQSGPELKKPGETVKISCKASGYTFTNYGMNWVKQAPGKGLKWMGWINTYTGEPTYADDFKGRFAFSLETSASTAYLQINNLKNEDLATYFCATYGHYAWFAYWGQGTLVTVSA
VL: QIVLSQSPAILSASPGEKVTMTCRASSSVSYMHWYQQKSGSSPKPWIYATSNLASGVPARFSGSGSGTSYSLTISRVEAEDAATYFCQQWGTKPLTFGAGTKLELK
B2: 85H8D5 chimeric monoclonal antibody (antibody, V domains shown)
VH: QIQLVQSGPELKKPGETVKISCMASGYTFTTHGVTWVKQAPGQGLQRMGWINTYSGVPTYADDFKGRFVFSLETSANTAHLQINNLKNEDTATYFCARTNNYRYFDVWGTGTTVTVSS
VL: B1 VL with A13S, S39P, S71F, F86Y, G91N, K93D, L95P, A99G, L105I
B3: 216G3D6 chimeric monoclonal antibody (antibody, V domains shown)
VH: QVTLKESGPGILQPSQTLSLTCSFSGFSLSTSGMGVGWIRQPSGKGLEWLAHIWWDDDKHCNPALKSRLTISKDTSSNQVFLKIASLDTADTATYYCTQMTMTREFAYWGQGTLVTVSA
VL: DIQMTQTISSLSASLGDRVTISCSAGQGISNYLNWYQQKPDGTVKLLIYYTSRLHSGVPSRFSGSGSGTDFSLTISNLEPEDIATYFCQQYSKFPYTFGGGTKLEIK
B4: 247E5A8 chimeric monoclonal antibody (antibody, V domains shown)
VH: DVQLQESGPGLVKPSQSLSLTCSVTGYSITGGYYWTWIRQFPGNKLEWMGYISYDGDNNYNPSLKNRISITRDTSKNQFFLNLNSVTTEDTATYYCAREGGRLRTMDYWGQGTSVTVSS
VL: QIVLTQSPAIMSASPGEKVTITCRASSSVNYMHWFQQKPGTSPKLWIYTTSNLASGVPARFSGSGSGTSYSLTISRMEAEDAATYYCQQRSSYPFTFGSGTKLEIK
B5: 252C12B10 chimeric monoclonal antibody (antibody, V domains shown)
VH: QVQLQQPGTELVKPGASVKLSCKTSGYTFTSYWMHWMKQRPGQGLEWLGHINPSTGGSNYNEKFKSKATLTVDKSSNTAYMQLSSLTSEDSAVYYCARPRGFYGYSYWYFDVWGSGTTVTVSS
VL: DIQMTQTTSSLSASLGDRVTISCSASQDINNYLNWYQHKPDGTIKVLIYFTSSLHSGVPSRFSGSGSGTEYSLTISNLEPEDIATYYCQQYSKLPPTFGSGTKLEIK
B6: 252H9D5 chimeric monoclonal antibody (antibody, V domains shown)
VH: QVTLRESGPGILQPSQTLSLTCSFSGFSLNTFGMGVGWIRQSSGKGLKWLAHIWWDDDKFYNPALKSRLTISKDTSKNQVFLKIANVDTTDTATYYCARIEGGLPYYYDYWGQGTPLIVSS
VL: DIVMTQSQKIMSTSVGDRISVTCKASQIVGTNVVWYQQKPGQSPKALIYSTSYRYSGVPDRFTGSRSGTDFTLTISNVQSEDLANYFCQQYNSYPFTFGSGTKLEIK
B7: 254B4D9 chimeric monoclonal antibody (antibody, V domains shown)
VH: QIQLVQSGPELKKPGETVKISCKASGYTFTAYGMSWVKQAPGKGLQWMGWINTYSGVPTYTDDFKGRFAFSLEASASTAFLQINNLKNEDTSTYFCARRAAVVAKYWYFDVWGTGTTVTVSS
VL: DIQMTQSPSSLFASLGGKVIITCKSSQDINKRISWYQHKPGKGPRLLIHSTSSLQPGIPLRFSGSGSGRDYSFSISNLEPEDIATYFCLQYDNLLTFGAGTKLELK
B8: 276C2D1 chimeric monoclonal antibody (antibody, V domains shown)
VH: QVQLQQSGPELVKPGASVKLSCKASGYTFTSYDINWVKQRPGLGLEWIGWIYPRDGYTKYNEKFKGKATLAVDTSSSTAYMELHSLTSEDSAVYFCARGYYSNLYYFDYWGQGTTLTVSS
VL: EVVLTQSPPTMAASPGEKITITCSASSSISSNYLHWYQQKPGFSPKLLIYRTSNLASGVPARFSGSGSGTSYSLTIGTMEAEDVATYYCQQGRSIPLTFGAGTKLELK
B9: 265F11B5 chimeric monoclonal antibody (antibody, V domains shown)
VH: B8 VH with K19R, S31T, K67R, A97T, S102D
VL: B8 VL with V2I, P9T, M11V, S28I, L34F, K40R, I95V
B10: 293C2B7 chimeric monoclonal antibody (antibody, V domains shown)
VH: B8 VH with L43Q, N61K, A71T, Y100F
VL: B8 VL with V2I, P9T, A13T, A61D
B11: 300A5A3 chimeric monoclonal antibody (antibody, V domains shown)
VH: B8 VH with S31T, Y80S, S102D, Y109N, Q112P
VL: B8 VL with V2N, P9T, M11V, S28I, V84A, I95V
B12: 280C6A3 chimeric monoclonal antibody (antibody, V domains shown)
VH: B8 VH with T28S, S31T, L43Q, Y57S, A71T, V72L, S77N, E82G, S102D
VL: B8 VL with V2I, P9T, I29V, S94I, I95V
B13: 10F7D9 Hu-5 (antibody, V domains shown)
VH: QIQLVQSGSELKKPGASVKVSCKASGYTFTNYGMNWVKQAPGQGLKWMGWINTYTGEPTYADDFKGRFVFSLDTSVSTAYLQISSLKAEDTAVYFCATYGHYAWFAYWGQGTLVTVSS
VL: EIVLTQSPDFQSVTPKEKVTITCRASSSVSYMHWYQQKPDQSPKLLIKATSNLASGVPSRFSGSGSGTDFTLTINSLEAEDAATYYCQQWGTKPLTFGQGTKLEIK
B14: 10F7D9 Hu-7 (antibody, V domains shown)
VH: B13 VH with I2V, K38R, K46E, F95Y, T98R
VL: B13 VL with L45P, L46W
B15: 10F7D9 Hu-9 (antibody, V domains shown)
VH: B13 VH with K38R, K46E
VL: B13 VL with L45P, L46W
B16: 10F7D9 Hu-10 (antibody, V domains shown)
VH: B13 VH with K38R
VL: B13 VL with L45P, L46W
B17: 10F7D9 Hu-11 (antibody, V domains shown)
VH: B13 VH
VL: B13 VL with L45P, L46W
B18: 10F7D9 Hu-12 (antibody, V domains shown)
VH: B13 VH with I2V, V20I, K38R, K46E, S84N, S85N
VL: B13 VL with L45P, L46W
B19: 10F7D9 Hu-13 (antibody, V domains shown)
VH: B13 VH with I2V, K38R, K46E, F95Y, T98R
VL: B13 VL with L45P, L46W, K48Y, Y86F
B20: 10F7D9 Hu-15 (antibody, V domains shown)
VH: B13 VH with K38R, K46E
VL: B13 VL with L45P, L46W, K48Y, Y86F
B21: 10F7D9 Hu-16 (antibody, V domains shown)
VH: B13 VH with K38R
VL: B13 VL with L45P, L46W, K48Y, Y86F
B22: 10F7D9 Hu-17 (antibody, V domains shown)
VH: B13 VH
VL: B13 VL with L45P, L46W, K48Y, Y86F
B23: 10F7D9 Hu-18 (antibody, V domains shown)
VH: B13 VH with I2V, V20I, K38R, K46E, S84N, S85N
VL: B13 VL with L45P, L46W, K48Y, Y86F

Experiments:
[1] = target: cyno MerTK-his protein (cynomolgus); assay: ELISA, coated cyno MerTK-his (FIG. 2)
human MerTK-his protein [2] = target: T1, human MerTK-his protein; assay: ELISA, coated human MerTK-his (FIG. 7)
human MerTK-his protein [3] = target: T1, human MerTK-his protein; assay: ELISA, coated human MerTK-his
Description: To evaluate the binding activity, the chimeric mAbs were subjected to ELISA test. Briefly, 96-well plates were coated with human or cyno MerTK-his protein at 2 μg/mL in PBS, 100 μL/well at 4° C. overnight, then blocked with 150 μL/well of 1% BSA. Five-fold dilutions of MerTK antibodies starting from 20 nM were added to each well and incubated for 1 hour at room temperature. The plates were washed with PBS/Tween-20 and then incubated with goat anti-human IgG Fe antibody conjugated with Horse Radish Peroxidase (HRP) for 30 minutes (mins) at room temperature. After washing, the plates were developed with TMB substrate and subsequent stop solution was added to complete the reaction. The signal from each well was read by spectrophotometer at OD 450 nm.

Binder | binding [1] | binding (human MerTK-his protein [2]) | binding (human MerTK-his protein [3])
B1 | binds | – | –
B2 | binds | – | –
B3 | binds | – | –
B4 | binds | – | –
B5 | binds | – | –
B6 | binds | – | –
B7 | binds | – | –
B8 | binds | – | –
B9 | binds | – | –
B10 | binds | – | –
B11 | binds | – | –
B12 | binds | – | –
B13 | – | binds | binds
B14 | – | binds | binds
B15 | – | binds | binds
B16 | – | binds | binds
B17 | – | binds | binds
B18 | – | binds | binds
B19 | – | binds | binds
B20 | – | binds | binds
B21 | – | binds | binds
B22 | – | binds | binds
B23 | – | binds | binds
